Laboratory results reported in publication PMC2891856.
No constants are given. Whether binding was seen depends on the method and setting. Binding seen in cells or lysates may run through a third protein. Some binding calls cover weakened binding; strength is not graded here.

Chains of the proteins cited; added tags and fusions are not shown.
UniProt O94776: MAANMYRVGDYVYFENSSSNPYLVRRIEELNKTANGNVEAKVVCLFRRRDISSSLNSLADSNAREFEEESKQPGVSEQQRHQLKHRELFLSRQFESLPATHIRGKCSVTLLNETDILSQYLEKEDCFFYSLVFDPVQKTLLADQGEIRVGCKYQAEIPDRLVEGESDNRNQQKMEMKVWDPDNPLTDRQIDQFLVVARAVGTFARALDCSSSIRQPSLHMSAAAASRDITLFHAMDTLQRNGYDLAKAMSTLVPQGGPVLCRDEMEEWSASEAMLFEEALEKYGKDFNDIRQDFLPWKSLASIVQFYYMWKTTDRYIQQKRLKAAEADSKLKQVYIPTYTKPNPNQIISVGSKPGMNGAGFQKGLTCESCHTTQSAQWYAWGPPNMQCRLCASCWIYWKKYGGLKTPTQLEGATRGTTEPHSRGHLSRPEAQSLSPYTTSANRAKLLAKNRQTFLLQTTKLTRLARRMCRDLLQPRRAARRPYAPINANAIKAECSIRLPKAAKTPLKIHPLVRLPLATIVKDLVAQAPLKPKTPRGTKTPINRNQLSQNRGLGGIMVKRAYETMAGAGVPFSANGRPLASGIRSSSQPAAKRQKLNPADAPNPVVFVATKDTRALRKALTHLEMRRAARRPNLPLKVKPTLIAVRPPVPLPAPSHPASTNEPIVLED
UniProt P49815: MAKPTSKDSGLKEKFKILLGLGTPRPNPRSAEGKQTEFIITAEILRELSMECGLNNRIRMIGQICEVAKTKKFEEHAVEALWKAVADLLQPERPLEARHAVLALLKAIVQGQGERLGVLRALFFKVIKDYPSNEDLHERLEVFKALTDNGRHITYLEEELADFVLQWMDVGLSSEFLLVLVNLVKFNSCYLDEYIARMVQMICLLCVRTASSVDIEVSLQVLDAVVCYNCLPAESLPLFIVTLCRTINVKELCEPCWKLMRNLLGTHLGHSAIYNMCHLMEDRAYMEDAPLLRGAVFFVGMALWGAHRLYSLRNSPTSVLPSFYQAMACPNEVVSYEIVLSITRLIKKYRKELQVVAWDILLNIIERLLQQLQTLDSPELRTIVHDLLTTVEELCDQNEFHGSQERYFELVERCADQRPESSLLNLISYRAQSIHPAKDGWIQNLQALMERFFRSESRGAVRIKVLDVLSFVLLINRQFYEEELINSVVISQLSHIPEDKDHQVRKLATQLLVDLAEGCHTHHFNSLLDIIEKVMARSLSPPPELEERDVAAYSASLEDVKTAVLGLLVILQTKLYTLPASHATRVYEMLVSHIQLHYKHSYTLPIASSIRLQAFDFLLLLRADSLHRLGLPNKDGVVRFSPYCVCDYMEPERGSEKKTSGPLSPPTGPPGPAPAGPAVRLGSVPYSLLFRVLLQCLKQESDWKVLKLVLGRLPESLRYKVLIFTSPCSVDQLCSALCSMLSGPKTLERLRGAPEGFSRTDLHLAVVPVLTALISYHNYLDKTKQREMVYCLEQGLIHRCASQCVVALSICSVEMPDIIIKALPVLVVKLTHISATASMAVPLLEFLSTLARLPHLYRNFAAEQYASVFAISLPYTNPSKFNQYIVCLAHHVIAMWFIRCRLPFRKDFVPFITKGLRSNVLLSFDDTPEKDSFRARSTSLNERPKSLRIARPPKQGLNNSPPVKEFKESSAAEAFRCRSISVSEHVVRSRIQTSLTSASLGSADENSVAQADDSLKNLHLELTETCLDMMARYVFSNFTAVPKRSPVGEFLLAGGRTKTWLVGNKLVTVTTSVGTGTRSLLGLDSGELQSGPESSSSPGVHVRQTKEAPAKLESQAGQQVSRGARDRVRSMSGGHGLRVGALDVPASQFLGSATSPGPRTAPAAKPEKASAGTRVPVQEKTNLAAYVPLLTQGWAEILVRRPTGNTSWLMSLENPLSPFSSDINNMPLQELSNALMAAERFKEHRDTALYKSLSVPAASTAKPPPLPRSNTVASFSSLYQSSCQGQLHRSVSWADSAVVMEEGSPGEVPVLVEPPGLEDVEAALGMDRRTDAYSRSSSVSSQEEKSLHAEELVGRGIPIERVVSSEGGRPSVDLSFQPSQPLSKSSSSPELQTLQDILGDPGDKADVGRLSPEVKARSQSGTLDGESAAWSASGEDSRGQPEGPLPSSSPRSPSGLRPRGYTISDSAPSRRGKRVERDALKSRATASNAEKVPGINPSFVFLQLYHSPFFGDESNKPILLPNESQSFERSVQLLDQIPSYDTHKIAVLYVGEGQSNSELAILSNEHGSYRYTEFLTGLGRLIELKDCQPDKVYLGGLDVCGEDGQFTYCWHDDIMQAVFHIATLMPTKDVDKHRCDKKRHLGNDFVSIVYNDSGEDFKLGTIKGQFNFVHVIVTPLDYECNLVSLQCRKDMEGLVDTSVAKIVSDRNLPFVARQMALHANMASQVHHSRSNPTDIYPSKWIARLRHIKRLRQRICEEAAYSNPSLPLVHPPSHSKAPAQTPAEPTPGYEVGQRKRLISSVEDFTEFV
UniProt P16779: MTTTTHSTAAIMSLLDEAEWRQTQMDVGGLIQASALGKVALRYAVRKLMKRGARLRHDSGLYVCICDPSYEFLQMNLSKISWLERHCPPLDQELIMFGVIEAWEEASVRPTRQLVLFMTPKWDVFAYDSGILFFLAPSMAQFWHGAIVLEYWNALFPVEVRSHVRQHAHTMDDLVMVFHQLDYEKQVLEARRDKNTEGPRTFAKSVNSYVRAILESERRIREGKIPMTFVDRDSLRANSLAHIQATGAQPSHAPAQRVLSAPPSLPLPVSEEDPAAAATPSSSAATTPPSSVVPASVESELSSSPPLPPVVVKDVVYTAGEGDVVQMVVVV

Columns and labels:
[1] = target: T1, SIN3A (human (endogenous in fibroblasts)) (UniProt Q96ST3); assay: co-IP
T1 sequence: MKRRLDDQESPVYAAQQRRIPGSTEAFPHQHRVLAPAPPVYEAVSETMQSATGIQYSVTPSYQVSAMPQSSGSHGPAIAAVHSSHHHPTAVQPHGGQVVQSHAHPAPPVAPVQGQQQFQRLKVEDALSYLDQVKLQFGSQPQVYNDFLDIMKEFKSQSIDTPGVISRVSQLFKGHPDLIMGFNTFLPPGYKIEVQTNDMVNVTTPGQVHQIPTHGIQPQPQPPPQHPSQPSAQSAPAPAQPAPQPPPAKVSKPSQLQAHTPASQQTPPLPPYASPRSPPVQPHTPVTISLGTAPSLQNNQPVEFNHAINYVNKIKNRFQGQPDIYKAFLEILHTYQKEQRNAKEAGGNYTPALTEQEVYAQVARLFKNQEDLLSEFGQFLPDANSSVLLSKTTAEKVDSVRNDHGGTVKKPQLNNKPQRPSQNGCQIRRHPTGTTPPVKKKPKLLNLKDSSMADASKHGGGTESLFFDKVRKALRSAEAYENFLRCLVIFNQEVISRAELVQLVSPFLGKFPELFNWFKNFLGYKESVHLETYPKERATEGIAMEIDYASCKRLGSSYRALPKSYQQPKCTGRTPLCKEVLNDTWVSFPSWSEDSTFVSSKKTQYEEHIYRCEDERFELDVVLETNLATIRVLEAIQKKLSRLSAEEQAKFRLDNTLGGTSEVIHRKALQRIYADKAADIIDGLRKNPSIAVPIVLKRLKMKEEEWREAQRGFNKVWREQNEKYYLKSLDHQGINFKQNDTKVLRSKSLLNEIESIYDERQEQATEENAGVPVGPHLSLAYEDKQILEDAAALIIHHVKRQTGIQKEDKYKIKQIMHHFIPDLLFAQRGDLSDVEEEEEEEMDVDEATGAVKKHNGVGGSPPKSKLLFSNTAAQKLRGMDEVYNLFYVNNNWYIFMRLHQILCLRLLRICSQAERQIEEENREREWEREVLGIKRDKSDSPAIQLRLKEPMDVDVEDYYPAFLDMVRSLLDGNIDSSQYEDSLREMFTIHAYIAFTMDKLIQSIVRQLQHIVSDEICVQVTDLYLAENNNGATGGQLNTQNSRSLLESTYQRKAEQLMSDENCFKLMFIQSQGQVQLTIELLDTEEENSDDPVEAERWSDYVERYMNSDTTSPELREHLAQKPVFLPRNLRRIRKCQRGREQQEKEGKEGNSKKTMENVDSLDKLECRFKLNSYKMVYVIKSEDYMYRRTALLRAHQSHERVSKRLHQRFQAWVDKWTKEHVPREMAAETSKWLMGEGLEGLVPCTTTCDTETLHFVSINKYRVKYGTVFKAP

[2] = target: MTA2 (human (endogenous in fibroblasts)) (UniProt O94776); assay: co-IP
[3] = target: tuberous sclerosis protein 2 (human (endogenous in fibroblasts)) (UniProt P49815); assay: co-IP
[4] = target: tuberous sclerosis protein 2 (human (endogenous in fibroblasts)) (UniProt P49815); assay: co-IP; whole cell lysates of uninfected pUL38-expressing fibroblasts (HF-UL38); antibodies against HDAC1 or TSC2; Western blot with anti-pUL38

Q: With HCMV pUL38 (from UniProt P16779 1-331) as the substance, how does the binding [1] read?
A: The binding was “no binding”.

Q: And the binding [2]?
A: The binding was “binds”.

Q: What about the binding [3] of the same substance?
A: The binding was “binds”.

Q: “HCMV pUL38 expressed in uninfected fibroblasts (from UniProt P16779 1-331)” was tested. Which binding [4] did it give?
A: The binding was “binds”.
